In PMC9652331:
Results are given in words; binding and its absence hold for the method and conditions named. Some results given as binding are weak or reduced against the parent protein; the word gives no strength. Where a sequence is shown, tags or fusion partners need not be part of it.

The chains behind the UniProt entries cited, without tags or fusion partners.
UniProt Q86U44: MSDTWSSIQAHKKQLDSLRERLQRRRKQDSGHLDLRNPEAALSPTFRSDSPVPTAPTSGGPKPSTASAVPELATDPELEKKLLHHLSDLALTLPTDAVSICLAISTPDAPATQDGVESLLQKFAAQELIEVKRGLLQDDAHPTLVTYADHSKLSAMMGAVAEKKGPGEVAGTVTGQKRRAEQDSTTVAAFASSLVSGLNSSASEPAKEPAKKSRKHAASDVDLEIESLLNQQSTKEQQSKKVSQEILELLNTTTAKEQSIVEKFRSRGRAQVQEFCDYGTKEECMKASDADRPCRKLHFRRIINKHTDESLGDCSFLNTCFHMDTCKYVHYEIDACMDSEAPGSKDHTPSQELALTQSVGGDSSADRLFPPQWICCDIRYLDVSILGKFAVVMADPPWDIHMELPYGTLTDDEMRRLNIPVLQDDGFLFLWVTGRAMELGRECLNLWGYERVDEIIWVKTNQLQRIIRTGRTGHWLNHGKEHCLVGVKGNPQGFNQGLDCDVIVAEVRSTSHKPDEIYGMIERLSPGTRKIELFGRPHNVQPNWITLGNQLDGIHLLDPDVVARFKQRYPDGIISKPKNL

Molecular target: T1, Zinc finger CCCH domain-containing protein 13 (ZC3H13) (1106–1668), N-Twin-Strep-tag-ZC3H13 (1106–1668) (human) (UniProt Q5T200)
T1 sequence: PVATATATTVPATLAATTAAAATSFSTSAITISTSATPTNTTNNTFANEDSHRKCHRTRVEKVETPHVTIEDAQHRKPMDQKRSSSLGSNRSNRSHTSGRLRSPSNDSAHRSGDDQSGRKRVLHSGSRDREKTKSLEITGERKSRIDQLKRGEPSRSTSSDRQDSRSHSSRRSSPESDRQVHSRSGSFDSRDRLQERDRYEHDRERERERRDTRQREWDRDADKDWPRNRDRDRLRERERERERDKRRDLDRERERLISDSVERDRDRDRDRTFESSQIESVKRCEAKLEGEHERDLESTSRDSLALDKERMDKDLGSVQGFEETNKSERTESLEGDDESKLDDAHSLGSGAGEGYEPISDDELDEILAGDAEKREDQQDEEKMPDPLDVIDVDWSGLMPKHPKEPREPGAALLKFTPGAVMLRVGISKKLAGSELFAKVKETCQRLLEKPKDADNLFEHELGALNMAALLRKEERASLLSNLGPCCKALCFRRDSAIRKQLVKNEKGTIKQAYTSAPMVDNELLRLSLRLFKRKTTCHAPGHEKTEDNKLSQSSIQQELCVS
Test: cross-linking; EDC XL-MS of purified MACOM with MAC (Fig. S4e): 5 mM EDC, 50 mM HEPES pH 7.2, 100 mM KCl, 5% glycerol, 25 °C, 3 h; both purified

- binding: binds
Substance: methyltransferase-like 3 (METTL3), full length (from UniProt Q86U44 1-580) (enzyme)
